Measured values reported in US20190309072A1.
Changes are numbered by the printed parent chain. These are yes or no findings as the source states them, for the method shown. Some binding calls cover weakened binding; strength is not graded here.

T1: human ITGa3 protein (human) (UniProt P26006)
T1 sequence (looked up): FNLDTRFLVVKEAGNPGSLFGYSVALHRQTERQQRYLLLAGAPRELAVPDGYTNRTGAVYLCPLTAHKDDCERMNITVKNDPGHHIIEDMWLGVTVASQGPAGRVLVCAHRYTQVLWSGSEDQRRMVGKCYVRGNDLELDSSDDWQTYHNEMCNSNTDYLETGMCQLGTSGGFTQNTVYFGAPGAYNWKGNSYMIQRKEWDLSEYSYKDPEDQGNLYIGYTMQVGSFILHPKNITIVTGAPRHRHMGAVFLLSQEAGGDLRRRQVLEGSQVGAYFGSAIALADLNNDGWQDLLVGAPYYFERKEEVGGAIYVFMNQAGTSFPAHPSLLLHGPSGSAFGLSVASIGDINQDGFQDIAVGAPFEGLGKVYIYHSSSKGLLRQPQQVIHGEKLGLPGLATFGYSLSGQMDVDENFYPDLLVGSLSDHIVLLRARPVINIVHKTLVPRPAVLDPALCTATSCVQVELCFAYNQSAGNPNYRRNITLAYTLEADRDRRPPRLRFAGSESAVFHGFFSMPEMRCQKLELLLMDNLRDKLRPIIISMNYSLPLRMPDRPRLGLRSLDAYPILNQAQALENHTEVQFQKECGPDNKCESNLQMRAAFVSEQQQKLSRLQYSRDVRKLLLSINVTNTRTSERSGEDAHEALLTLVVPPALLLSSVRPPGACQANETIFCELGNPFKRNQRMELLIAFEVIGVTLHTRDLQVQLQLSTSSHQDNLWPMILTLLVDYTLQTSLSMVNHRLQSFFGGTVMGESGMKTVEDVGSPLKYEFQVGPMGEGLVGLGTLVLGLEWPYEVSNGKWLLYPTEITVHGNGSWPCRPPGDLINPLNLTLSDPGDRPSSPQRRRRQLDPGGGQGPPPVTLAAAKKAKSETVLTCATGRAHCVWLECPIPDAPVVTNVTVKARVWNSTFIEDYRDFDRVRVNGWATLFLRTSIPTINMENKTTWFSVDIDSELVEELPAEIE

B1: Lc1/Hc1 (antibody, V domains shown)
VH: QVQLVQSGAEVKKPGSSVKVSCKASGYTFTEYIIHWVRQAPGQGLEWIGWFYPESGSVKYNETFKGRATLTADKSTSTAYMELSSLRSEDTAVYYCARHEERDYYGYYAMDYWGQGTTVTVSS
VL: DIQMTQSPSSLSASVGDRVTITCSASSSISSNYLHWYQQKPGKVPKLLIYRTSNLASGVPSRFSGSGSGTDYTLTISSLQPEDVATYYCQQGSSIPRFTSGGGTKVEIK
B2: Lc2/Hc1 (antibody, V domains shown)
VH: B1 VH
VL: B1 VL with T20I
B3: Lc1/Hc1A (antibody, V domains shown)
VH: B1 VH with T63A
VL: B1 VL
B4: Lc2/Hc1A (antibody, V domains shown)
VH: B1 VH with T63A
VL: B1 VL with T20I
B5: Lc1/Hc1G (antibody, V domains shown)
VH: B1 VH with T63G
VL: B1 VL
B6: Lc1/Hc1S (antibody, V domains shown)
VH: B1 VH with N61S
VL: B1 VL
B7: Lc1/Hc1S (VH of SEQ ID NO: 4 and VL of SEQ ID NO: 12) (antibody, V domains shown)
VH: B1 VH with N61S
VL: B1 VL with T20I
B8: ITGa3-VM2 (antibody, mouse IgG1, V domains shown)
VH: EVQLQESGAELVKPGTSVRLSCKASGYTFTEYIIHWVKQRSGQGLEWIGWFYPESGSVKYNETFKGRATLTADKSSSTVYMELSRLTSEDSAVYFCARHEERDYYGYYAMDYWGQGTSVTVSS
VL: DIVMTQTPTTLAASPGEKIIITCSASSSISSNYLHWYQQKPGFSPKLLIYRTSNLASGVPARFSGSGSGTSYSLTIGTMEAEDVATYYCQQGSSIPRFTSGSGTKLEIK

Each binder was assayed against T1, human ITGa3 protein (human) (assay: ELISA; human ITGa3 protein adsorbed to plate; anti-human FAB-peroxidase secondary).

Binder | binding
B1 | binds
B2 | binds
B3 | binds
B4 | binds
B5 | binds
B6 | binds
B7 | binds

These binders were tested against T1, human ITGa3 protein (human) (assay: ELISA; human ITGa3 protein adsorbed to plate; anti-mouse FAB-peroxidase secondary).

Binder | binding
B8 | binds
